Values joined by “and” are separate entries in the source; they are usually repeats but may differ in a detail not shown here. Equal values may be shown once. ± gives the standard deviation of the averaged measurements. The full ranking holds about 3,800 compounds; the median of “cell shape (eccentricity) Z-score vs DMSO control” is about 1.1, and the lowest 2% start at about -4.7. The list shows a part of the results. Residues, ends and D or L forms follow the SMILES beside them. *: point of attachment. Cbz = O=C(OCc1ccccc1)*
system: human monocyte-derived macrophages (M0); experiment: cell shape (eccentricity) Z-score vs DMSO control; higher = more elongated, M2-like morphology; conditions: 20 µM; 24 h; macrophage state: M0 (M-CSF)

Structure (SMILES)	cell shape (Z-score)
COc1ccc(/C=C/C(=O)c2ccc(O)cc2O)cc1	-5.34
CCOc1cc(/C=C2\C(=O)N(c3ccccc3)N=C2C)cc(Cl)c1OCC(=O)OC	1.49
C/C=C(/C)C(=O)OC(C)(C)C1Cc2cc3ccc(=O)oc3cc2O1 (stereo unspecified)	2.97
C=CCNC(=O)c1cc([N+](=O)[O-])cc2c(=O)[nH]c(Nc3ccc(Cl)c(Cl)c3)nc12	1.34
N=C(N)NCCNS(=O)(=O)c1cccc2cnccc12	5.63
O=C(OCC1OC(Oc2ccc(O)cc2COC(=O)C2(O)C(O)CCC2(O)C(=O)O)C(O)C(O)C1O)c1ccccc1 (stereo unspecified)	0.557
CC(C)CCCC(C)(O)c1ccc(C(=O)O)cc1O (stereo unspecified)	0.842
COc1cc(C2OC(c3ccc(O)c(OC)c3)C(C)(O)C2C)ccc1O (stereo unspecified)	-0.34
Cc1c(C(=O)NN2CCCCC2)nn(-c2ccc(Cl)cc2Cl)c1-c1ccc(I)cc1	-0.11
CC1(C)CCC(C)(C)c2cc([C@@H](O)C(=O)Nc3ccc(C(=O)O)cc3F)ccc21	5.37
COC(=O)c1cc(O)cc(O)c1C(=O)c1c(O)c(Cl)c(C)c(Cl)c1OC	2.39
O=C(/C=C/c1ccccc1)OC[C@]12O[C@H]1[C@@H](O)[C@@H]1C=CO[C@@H](O[C@@H]3O[C@H](CO)[C@@H](O)[C@H](O)[C@H]3O)[C@@H]12	-0.606
COC(=O)C[C@H]1C(C)(C)C(=O)[C@@H]2CC3=C4CC(=O)O[C@@H](c5ccoc5)[C@]4(C)CCC3[C@@]1(C)C2=O (stereo partly specified)	-1.24
Cc1nc2sccn2c(=O)c1CCN1CCC(=C(c2ccc(F)cc2)c2ccc(F)cc2)CC1	4.15
C=C1C(N)CC2CC1C2(C)C (stereo unspecified)	-2.56
O=C1OCCN1/N=C/c1ccc([N+](=O)[O-])o1	-1.99
FC(F)c1nc2ccccc2n1-c1nc(N2CCOCC2)nc(N2CCOCC2)n1	-3.24
COc1ccc(O)cc1	0.328
COc1cc2c(c(O)c1CO)C(=O)CCC2O (stereo unspecified)	-2.26
COc1ccc(OC)c(/C=C/C(=O)O)c1	0.305 ± 1.6
O=C(O)Cc1nn(Cc2nc3cc(C(F)(F)F)ccc3s2)c(=O)c2ccccc12	1.57
COc1cc(/C=C/c2cc(O)cc(O[C@@H]3O[C@H](CO)[C@@H](O)[C@H](O)[C@H]3O)c2)ccc1O[C@@H]1O[C@H](CO)[C@@H](O)[C@H](O)[C@H]1O	2.22

Three records drawn at random from those above, as already listed:
Structure (SMILES)	cell shape (Z-score)
FC(F)c1nc2ccccc2n1-c1nc(N2CCOCC2)nc(N2CCOCC2)n1	-3.24
COC(=O)c1cc(O)cc(O)c1C(=O)c1c(O)c(Cl)c(C)c(Cl)c1OC	2.39
C=CCNC(=O)c1cc([N+](=O)[O-])cc2c(=O)[nH]c(Nc3ccc(Cl)c(Cl)c3)nc12	1.34

The listing continues:

Structure (SMILES)	cell shape (Z-score)
C=C1CCC2(C(=O)OC3OC(CO)C(O)C(O)C3OC3OCC(O)C(O)C3O)CCC3(C)C(=CCC4C5(C)CCC(OC6OC(CO)C(O)C(O)C6O)C(C)(CO)C5CCC43C)C2C1 (stereo unspecified)	3.19
Fc1ccc(C(c2ccc(F)cc2)N2CCN(C/C=C/c3ccccc3)CC2)cc1	1.81
CN(Cc1cnc2nc(N)nc(N)c2n1)c1ccc(C(=O)N[C@@H](CCC(=O)O)C(=O)O)cc1	1.41 and 2.41
C=C1[C@@H](C2=CC(=O)OC2)CC[C@@]2(O)[C@@H]1CC1[C@H]2CC[C@@H]2C[C@@H](O[C@H]3O[C@@H](C)[C@@H](O[C@@H]4O[C@H](CO[C@@H]5O[C@H](CO)[C@@H](O)[C@H](O)[C@H]5O)[C@@H](O)[C@H](O)[C@H]4O)[C@H](OC)[C@H]3O)CC[C@]12C (stereo partly specified)	-4.99
C=CC(C)(O)C(O)CC1C(=C)CCC2C(C)(C(=O)O)CCCC12C (stereo unspecified)	0.279 ± 2.5
CC1=C2CCC(C(=O)O)=CC2C(C(C)C)CC1 (stereo unspecified)	0.308
C#C[C@]1(O)CCC2C3CCc4cc(OC)ccc4C3CC[C@@]21C (stereo partly specified)	1.4
C[C@@H]1CC2C3CCC4=CC(=O)C=C[C@]4(C)[C@@]3(F)[C@@H](O)C[C@]2(C)[C@@]1(O)C(=O)CO (stereo partly specified)	-0.196
C[C@@H]1O[C@@H](O[C@H]2[C@H](O[C@H]3[C@H](O)[C@@H](C(=O)O)O[C@@H](O[C@H]4CC[C@@]5(C)C(CC[C@]6(C)C5CC[C@]57OC[C@@]8(CCC(C)(C)CC85)[C@H](O)C[C@]76C)C4(C)C)[C@@H]3O[C@@H]3O[C@H](CO)[C@@H](O[C@@H]4OC[C@@H](O)[C@H](O)[C@H]4O)[C@H](O)[C@H]3O)O[C@H](CO)[C@H](O)[C@@H]2O)[C@H](O)[C@H](O)[C@H]1O (stereo partly specified)	-1.16
COc1c(OC)c(O)c2c(=O)cc(-c3ccc(O)cc3)oc2c1OC	0.968 ± 2.1
C=C[C@@]12COC(=O)C(=C)C1[C@@H](O)[C@H](C(=C)C(=O)OC)[C@@H](OC(=O)C(=C)CO)C2 (stereo partly specified)	0.674
C[C@@H]1CN([C@@H](C)CO)C(=O)c2cccc(NC(=O)c3ccncc3)c2O[C@H]1CN(C)C(=O)Nc1cccc2ccccc12	2.24
CCN(CC)CCOC(=O)c1cc(Cl)c(N)cc1OC	-1.96
C=C(C)C(O)C(O)c1c(OC)ccc2ccc(=O)oc12 (stereo unspecified)	-1.84 ± 0.5
COc1cc(OC)c(/C=C/S(=O)(=O)Cc2ccc(OC)c(NCC(=O)O)c2)c(OC)c1	7.42
Cc1cccc(C)c1OCC(C)N (stereo unspecified)	1.2
CC(C)NC(=O)N(C)C[C@H]1Oc2ccc(N(C)C)cc2C(=O)N([C@H](C)CO)C[C@H]1C	1.12
CC(C)(CO)C(O)C(=O)NCCCO (stereo unspecified)	4.23
Cc1cc(Nc2cc(N3CCN(C)CC3)nc(Sc3ccc(NC(=O)C4CC4)cc3)n2)n[nH]1	11 and 13 and 18
Cn1c(=O)c2c(ncn2CCO)n(C)c1=O	-0.836
CCN(CC)CCNC(=O)c1cc(Cl)c(N)cc1OC	-2.66
COc1cc(C(O)CCOC2OC(CO)C(O)C(O)C2O)cc2cc(-c3ccc4c(c3)OCO4)oc12 (stereo unspecified)	3.3

Among those listed so far, these have sulfur:
Structure (SMILES)	cell shape (Z-score)
N=C(N)NCCNS(=O)(=O)c1cccc2cnccc12	5.63
Cc1nc2sccn2c(=O)c1CCN1CCC(=C(c2ccc(F)cc2)c2ccc(F)cc2)CC1	4.15
O=C(O)Cc1nn(Cc2nc3cc(C(F)(F)F)ccc3s2)c(=O)c2ccccc12	1.57
COc1cc(OC)c(/C=C/S(=O)(=O)Cc2ccc(OC)c(NCC(=O)O)c2)c(OC)c1	7.42
Cc1cc(Nc2cc(N3CCN(C)CC3)nc(Sc3ccc(NC(=O)C4CC4)cc3)n2)n[nH]1	11 and 13 and 18

Continuation:

Structure (SMILES)	cell shape (Z-score)
COc1cc(C[C@@H]2CO[C@@H](c3ccc(O)c(OC)c3)[C@@H]2CO)ccc1O	0.645
Fc1ccc(C(c2ccc(F)cc2)N2CCN(CC=Cc3ccccc3)CC2)cc1	0.716
CC(C)(C)c1cc(NC(=O)Nc2ccc(-c3cn4c(n3)sc3cc(OCCN5CCOCC5)ccc34)cc2)no1	-1.1
O=C(/C=C/c1ccc(O)cc1)CC(=O)/C=C/c1ccc(O)cc1	-1.34
Nc1ccccc1S(N)(=O)=O	4.3
COc1cc(CCc2cc(NC(=O)c3ccc(N4C[C@@H](C)N[C@@H](C)C4)cc3)n[nH]2)cc(OC)c1	1.24
COc1cc(OC2OC(COC3OCC(O)(CO)C3O)C(O)C(O)C2O)c2c(-c3ccc(O)c(O)c3)cc(=O)oc2c1 (stereo unspecified)	-0.273
Nc1ncnc2c1ncn2[C@@H]1O[C@H](C[C@@H](N)CC[C@H](N)C(=O)O)[C@@H](O)[C@H]1O	1.35
C[C@@H]1CC2C3C[C@H](F)C4=CC(=O)C=C[C@]4(C)[C@@]3(F)[C@@H](O)C[C@]2(C)[C@@]1(O)C(=O)CO (stereo partly specified)	-0.062
CC(C)OC(=O)c1cc2c(OCC(O)CNC(C)(C)C)cccc2[nH]1 (stereo unspecified)	2.05
C=CC(=O)Nc1cccc(Oc2nc(Nc3ccc(N4CCN(C)CC4)cc3OC)ncc2Cl)c1	1.63
C/C=C(/C)C(=O)OC(COc1c2ccoc2c(OC)c2oc(=O)ccc12)C(C)(C)O (stereo unspecified)	2.13
CC(=O)O[C@H]1CC[C@@]2(C)C(C[C@@H](OC(C)=O)[C@@]3(C)C4=CC(=O)O[C@@H](c5ccoc5)[C@]4(C)CCC23)C1(C)C (stereo partly specified)	0.0185
O=C(O)c1cc2cc(F)ccc2[nH]1	4.76
CCCCCCCCCCCCCCCCCCOP(=O)(O)OC1CC[N+](C)(C)CC1	0.379
CN(C)c1cc(NC(=O)CNC(C)(C)C)c(O)c2c1C[C@H]1C[C@H]3[C@H](N(C)C)C(=O)C(C(N)=O)C(=O)[C@@]3(O)C(=O)C1C2=O (stereo partly specified)	-0.865
CC(C)(O)C1=CCC23COC(C2)C(O)(C(=O)O)CCC13 (stereo unspecified)	2.27
CCCCCCCCCC[C@@H]1C(=O)O[C@H]1CCc1ccc(OC)c(OC)c1	-0.126
O=C(O)c1cc(-c2ccccc2)nc2ccccc12	3.02
Cc1ccc(C(O)(COC(=O)C(C)C)COC(=O)C(C)C)c(O)c1	2.62
Cn1c(=O)c2c(ncn2CC(O)CO)n(C)c1=O (stereo unspecified)	1.98
COc1cc(OC)c2c(c1Cl)OC1(C(=O)CC(=O)CC1C)C2=O (stereo unspecified)	0.148

Structure (SMILES)	cell shape (Z-score)
CC(C)Cn1cnc2c(N)nc3ccccc3c21	3.03
CCn1ccnc1CC1COc2ccccc2O1 (stereo unspecified)	0.589
CN1CCN(C(c2ccccc2)c2ccc(Cl)cc2)CC1 (stereo unspecified)	4.69
CCCOc1ccccc1-c1nc2nn[nH]c2c(=O)[nH]1	0.426
CC(=O)[C@]1(O)Cc2c(O)c3c(c(O)c2[C@@H](O[C@H]2C[C@H](N)[C@H](O)[C@H](C)O2)C1)C(=O)c1ccccc1C3=O	1.52
CC(C)[C@H](N)C(=O)OCC(CO)OCn1cnc2c(=O)[nH]c(N)nc21 (stereo partly specified)	0.485
Cn1cnc(-c2cc3nccc(Oc4ccc(NC(=S)NC(=O)Cc5ccccc5)cc4F)c3s2)c1	15.9
CCCCC#Cc1nc(NC)c2ncn(C3OC(CO)C(O)C3O)c2n1 (stereo unspecified)	3.94
CN1CCN(c2nc(C3=C(c4c[nH]c5ccccc45)C(=O)NC3=O)c3ccccc3n2)CC1	10.5
COc1ccc(C(C#N)C(C)C)cc1OC (stereo unspecified)	3.39
COC(=O)C1=C(C)NC(C)=C(C(=O)NCCCN2CCC(c3ccccc3)(c3ccccc3)CC2)C1c1ccc([N+](=O)[O-])cc1 (stereo unspecified)	-1.22
C/C=C1/CN[C@H]2Cc3c([nH]c4ccccc34)C(=O)C[C@H]1C2C(=O)OC (stereo partly specified)	0.613 ± 0.52
S=C(S)OC1CC2CC1C1CCCC21 (stereo unspecified)	0.671
O=C1c2ccccc2C(=O)C1c1ccccc1	0.176
COc1ccc(-c2cc(=O)c3c(O)cc(O[C@@H]4O[C@H](C(=O)O)[C@@H](O)[C@H](O)[C@H]4O)cc3o2)cc1	-0.672
CC(C)C[C@@H](C=O)NC(=O)[C@H](CC(C)C)NC(=O)[C@H](CC(C)C)NC(=O)OCc1ccccc1 (Cbz-Leu-Leu-Leu-aldehyde)	5.25
CCC(=O)c1c(O)cc(O)cc1O	-0.633
O=C(O)c1cn(-c2ccc(F)cc2)c2cc(N3CCNCC3)c(F)cc2c1=O	-0.976
C#CC1(OCC(O)CN2CCN(c3cccc(C(F)(F)F)c3)CC2)CCCCC1 (stereo unspecified)	-7.88
COc1ccc(C2Oc3c(OC)cc(/C=C/COC4OC(CO)C(O)C(O)C4O)cc3C2CO)cc1OC (stereo unspecified)	0.895
